Data as given in patent publication US11591368B2, “Peptides for cancer treatment” (CHUNG SHAN MEDICAL UNIVERSITY, priority 2017, dated 2023).
Values joined by “and” are separate entries in the source; they are usually repeats but may differ in a detail not shown here. Equal values may be shown once. Read-outs that look alike come from different tables or passages of the source. Not every detail of the peptide structures is certain; ends, links or a residue may be inferred. Where a SMILES comes first, the peptide text is derived from it. The star is where a group is joined. Fmoc = O=C(OCC1c2ccccc2-c2ccccc21)*

Tested on: CL1-5 cells
Format: in vivo, mice
Experimental: CL1-5 cells were washed, detached, and resuspended in PBS. Subsequently, a single-cell suspension containing 2×10^6 cell in 80 μL PBS was mixed with 20 μL 10× Matrigel (Corning, 5117012). The cell suspension was subcutaneously injected into the upper back of the immune deficient BALB/CAnN.Cg-Foxn1nu/CrlBltw mice. […] The tumor-bearing mice were divided into five groups (n=8/group). […] On day 13, the mice in the Fmoc-LT1-3 group were subcutaneously injected with 20 nmol Fmoc-LT1-3/γ-CD in the lower back daily. […] During the course of each treatment, the tumor volume was measured every 3 days. The mortality rates of mice were recorded, which included mice with tumor volume over 1500 mm^3. The percent of survival rate is recorded in FIG. 11 and the median survival of each group is calculated in Table 1.

CC[C@H](C)[C@H](NC(=O)[C@H](Cc1c[nH]cn1)NC(=O)[C@H](Cc1ccccc1)NC(=O)OCC1c2ccccc2-c2ccccc21)C(=O)N[C@H](C(=O)N[C@@H](CCC(=O)O)C(=O)N[C@@H](CC(C)C)C(=O)N[C@@H](CC(C)C)C(=O)N[C@@H](C)C(=O)O)C(C)C [Fmoc-LT1-3] (Fmoc-FHIVELLA-OH; N-terminus and C-terminus assumed)
Median survival (Combination treatment: cisplatin IP weekly 4 times and 20 nmol Fmoc-LT1-3/γ-CD daily): 47.5 days | Median survival (Maintenance treatment: cisplatin IP 4 times and 20 nmol Fmoc-LT1-3/γ-CD daily from the third cisplatin injection): 44 days and 44.0 days | Median survival (single agent: cisplatin 4 mg/kg IP weekly 4 times, or 20 nmol Fmoc-LT1-3/γ-CD s.c. daily): 37.5 days
